In article PMC8270478:
These are yes or no findings as the source states them, for the method shown. In cells and extracts the contact can be indirect. Here binding means that the protein was enriched with, or labelled near, the bait; the list need not be complete. A no says only that the protein was not detected with the bait. Tags and fused reporters may be left off the sequences shown.

B1: chloroplast binding protein CRB (protein, UniProt Q9SA52 51-378)
chain: SSEKKILIMGGTRFIGLFLSRILVKEGHQVTLFTRGKSPIAKQLPGESDQDFADFSSKILHLKGDRKDYDFVKSSLSAEGFDVVYDINGREAEEVEPILEALPKLEQYIYCSSAGVYLKSDILPHCEEDAVDPKSRHKGKLETESLLQSKGVNWTSIRPVYIYGPLNYNPVEEWFFHRLKAGRPIPVPNSGIQISQLGHVKDLATAFLNVLGNEKASREIFNISGEKYVTFDGLAKACAKAGGFPEPEIVHYNPKEFDFGKKKAFPFRDQHFFASVEKAKHVLGWKPEFDLVEGLTDSYNLDFGRGTFRKEADFTTDDMILSKKLVLQ

Molecular target: T1, HA-tagged VAL1 (VAL1::VAL1-3xHA) (Arabidopsis thaliana) (UniProt Q8W4L5)
T1 sequence: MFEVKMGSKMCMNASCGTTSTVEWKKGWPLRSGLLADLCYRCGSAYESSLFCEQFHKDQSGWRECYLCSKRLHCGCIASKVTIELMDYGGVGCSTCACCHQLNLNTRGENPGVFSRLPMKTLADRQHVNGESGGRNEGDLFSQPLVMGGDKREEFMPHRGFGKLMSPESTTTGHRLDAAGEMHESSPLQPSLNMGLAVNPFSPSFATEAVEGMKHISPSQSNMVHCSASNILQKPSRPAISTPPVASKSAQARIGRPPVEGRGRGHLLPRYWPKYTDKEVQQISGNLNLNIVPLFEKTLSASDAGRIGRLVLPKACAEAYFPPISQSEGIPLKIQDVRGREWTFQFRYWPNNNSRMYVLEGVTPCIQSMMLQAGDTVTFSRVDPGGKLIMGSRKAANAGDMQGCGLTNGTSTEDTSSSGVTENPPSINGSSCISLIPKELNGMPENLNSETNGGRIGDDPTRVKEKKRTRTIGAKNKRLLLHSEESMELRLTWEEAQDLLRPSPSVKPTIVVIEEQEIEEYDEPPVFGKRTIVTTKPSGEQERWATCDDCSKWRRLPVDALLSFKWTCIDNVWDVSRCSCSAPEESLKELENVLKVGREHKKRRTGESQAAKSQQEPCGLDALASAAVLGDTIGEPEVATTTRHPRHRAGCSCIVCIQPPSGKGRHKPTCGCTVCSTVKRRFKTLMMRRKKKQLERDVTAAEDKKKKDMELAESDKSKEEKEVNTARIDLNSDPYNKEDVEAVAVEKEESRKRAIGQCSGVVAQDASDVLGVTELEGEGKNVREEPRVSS
Assay: affinity purification with mass spectrometry; anti-HA (Roche) on Dynabeads Protein A, overnight at 4°C in IP buffer (20mM Tris-HCl pH 8, 150mM NaCl, 2.5mM EDTA, 0.5% Triton); tissue of VAL1-HA; val1-2; FRI-Sf2 plants at 1, 2 and 3 weeks, val1-2; fri as control

Molecule | binding
ATBMI1A | binds
B1 | no binding
